Laboratory results from patent US20170107569, “METHOD FOR ATTACHING ONE OR MORE POLYNUCLEOTIDE BINDING PROTEINS TO A TARGET POLYNUCLEOTIDE” (Oxford Nanopore Technologies Ltd., published 2017).

Key:
[1] = target: T1, T4 Dda-E94C/C109A/C136A/A360C helicase (UniProt P32270); test: activity assay; conditions: 5' phosphate on SEQ 36; 4 iSp18 between SEQ 36 and SEQ 37; iBNA-meC, two iBNA-A, two iBNA-meC and iSp18 spacers between SEQ 34 and SEQ 35; pre-loaded as Example 2; helicase-controlled DNA movement through MspA nanopore, ATP and Mg2+; purified recombinant protein; protein details: closed with TMAD
T1 sequence: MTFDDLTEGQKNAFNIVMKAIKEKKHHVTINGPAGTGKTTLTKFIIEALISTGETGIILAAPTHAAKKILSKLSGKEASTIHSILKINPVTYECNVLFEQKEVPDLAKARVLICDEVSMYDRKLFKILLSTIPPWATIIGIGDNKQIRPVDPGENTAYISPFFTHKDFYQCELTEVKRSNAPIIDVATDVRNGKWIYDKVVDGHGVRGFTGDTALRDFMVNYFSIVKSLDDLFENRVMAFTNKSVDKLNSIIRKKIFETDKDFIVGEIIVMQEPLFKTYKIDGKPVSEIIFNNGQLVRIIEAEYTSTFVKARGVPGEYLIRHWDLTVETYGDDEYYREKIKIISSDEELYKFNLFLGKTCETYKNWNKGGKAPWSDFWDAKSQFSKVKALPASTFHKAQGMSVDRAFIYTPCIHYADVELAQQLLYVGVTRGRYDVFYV

[2] = target: T2, T4 Dda-(H82R/E94C/A360C) helicase (UniProt P32270); test: activity assay; conditions: 39 SpC3 at 5' end of SEQ 32; 4 iSp18 between SEQ 32 and SEQ 33; iBNA-meC, two iBNA-A, two iBNA-meC and iSp18 spacers between SEQ 34 and SEQ 35; pre-loaded as Example 2; helicase-controlled DNA movement through MspA nanopore, ATP and Mg2+; purified recombinant protein
T2 sequence: T1 sequence with H82R, A109C, A136C

Sequence	activity on this sequence [1]	activity on this sequence [2]
TGAGTGACCAATCAGCTACGTTTTTTTTTTTTGGTTGTTTCTGTTGGTGCTGATATTGCT / GCAATATCAGCACCAACAGAAAGAGGCGAGCGGTCAA / CGTAGCTGATTGGTCACTCAGT [END-piece (Example 6)]	active	
TTTTTTTTTTGGTTGTTTCTGTTGGTGCTGATATTGCAC / GCAATATCAGCACCAACAGAAAGAGGCGAGCGGTCAA [A-piece (Example 6)]		active

Where a chain is given by its changes, count along the chain named. For at least one entry, the source does not settle the construct or the ends of the probe. Protein sequences can lack the tags named with them.
